Measured values as given in publication doi:10.1101/2024.04.10.588880.
These are yes or no findings as the source states them, for the method shown. Binding seen in cells or lysates may run through a third protein. Some entries that bind do so weakly or less than the wild type. Where a sequence is shown, tags or fusion partners need not be part of it.

Amino acid sequences for entries named in this document (tags omitted).
UniProt Q6XZF7: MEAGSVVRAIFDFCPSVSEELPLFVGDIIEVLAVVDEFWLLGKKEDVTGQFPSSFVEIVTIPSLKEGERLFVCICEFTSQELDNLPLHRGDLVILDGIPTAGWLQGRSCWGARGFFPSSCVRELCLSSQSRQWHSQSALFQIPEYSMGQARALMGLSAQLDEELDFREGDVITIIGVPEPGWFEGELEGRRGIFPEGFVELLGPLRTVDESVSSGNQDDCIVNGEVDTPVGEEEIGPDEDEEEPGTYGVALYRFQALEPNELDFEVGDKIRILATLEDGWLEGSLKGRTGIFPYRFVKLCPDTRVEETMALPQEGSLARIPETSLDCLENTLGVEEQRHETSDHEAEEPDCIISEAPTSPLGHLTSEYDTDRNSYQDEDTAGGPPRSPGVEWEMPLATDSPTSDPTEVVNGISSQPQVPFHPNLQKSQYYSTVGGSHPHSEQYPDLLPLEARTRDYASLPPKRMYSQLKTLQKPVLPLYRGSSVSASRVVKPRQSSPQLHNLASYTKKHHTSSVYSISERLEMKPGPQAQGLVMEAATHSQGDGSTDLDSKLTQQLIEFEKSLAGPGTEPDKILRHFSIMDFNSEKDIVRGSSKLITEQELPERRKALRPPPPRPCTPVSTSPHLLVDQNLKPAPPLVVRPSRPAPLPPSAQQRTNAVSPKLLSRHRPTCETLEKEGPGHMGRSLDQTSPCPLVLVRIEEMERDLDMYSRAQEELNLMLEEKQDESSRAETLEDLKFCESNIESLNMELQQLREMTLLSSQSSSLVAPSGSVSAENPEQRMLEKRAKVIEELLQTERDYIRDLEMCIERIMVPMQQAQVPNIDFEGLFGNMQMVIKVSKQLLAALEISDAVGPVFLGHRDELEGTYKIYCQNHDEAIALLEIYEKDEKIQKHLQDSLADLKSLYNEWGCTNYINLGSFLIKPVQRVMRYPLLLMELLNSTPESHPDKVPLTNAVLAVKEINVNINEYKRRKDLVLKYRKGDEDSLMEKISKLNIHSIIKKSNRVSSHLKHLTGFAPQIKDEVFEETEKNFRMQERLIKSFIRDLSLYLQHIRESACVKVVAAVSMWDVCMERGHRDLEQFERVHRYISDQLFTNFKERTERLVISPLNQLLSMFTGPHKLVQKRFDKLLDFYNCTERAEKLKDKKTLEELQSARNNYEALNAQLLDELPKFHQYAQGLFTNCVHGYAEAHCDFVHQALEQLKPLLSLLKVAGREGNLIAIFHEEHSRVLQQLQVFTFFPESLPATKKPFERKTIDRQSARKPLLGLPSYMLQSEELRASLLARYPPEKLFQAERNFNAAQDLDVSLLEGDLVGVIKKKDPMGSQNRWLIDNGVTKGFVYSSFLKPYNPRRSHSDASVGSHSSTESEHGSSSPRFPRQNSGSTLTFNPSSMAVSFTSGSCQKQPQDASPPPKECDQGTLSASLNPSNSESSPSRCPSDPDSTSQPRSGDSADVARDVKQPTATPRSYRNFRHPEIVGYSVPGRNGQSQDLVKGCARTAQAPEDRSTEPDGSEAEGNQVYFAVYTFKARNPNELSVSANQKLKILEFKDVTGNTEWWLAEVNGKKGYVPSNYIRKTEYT

Molecular target: T1, GST-tagged wild-type (WT) Dynamin 2 (rat) (UniProt P39052)
T1 sequence: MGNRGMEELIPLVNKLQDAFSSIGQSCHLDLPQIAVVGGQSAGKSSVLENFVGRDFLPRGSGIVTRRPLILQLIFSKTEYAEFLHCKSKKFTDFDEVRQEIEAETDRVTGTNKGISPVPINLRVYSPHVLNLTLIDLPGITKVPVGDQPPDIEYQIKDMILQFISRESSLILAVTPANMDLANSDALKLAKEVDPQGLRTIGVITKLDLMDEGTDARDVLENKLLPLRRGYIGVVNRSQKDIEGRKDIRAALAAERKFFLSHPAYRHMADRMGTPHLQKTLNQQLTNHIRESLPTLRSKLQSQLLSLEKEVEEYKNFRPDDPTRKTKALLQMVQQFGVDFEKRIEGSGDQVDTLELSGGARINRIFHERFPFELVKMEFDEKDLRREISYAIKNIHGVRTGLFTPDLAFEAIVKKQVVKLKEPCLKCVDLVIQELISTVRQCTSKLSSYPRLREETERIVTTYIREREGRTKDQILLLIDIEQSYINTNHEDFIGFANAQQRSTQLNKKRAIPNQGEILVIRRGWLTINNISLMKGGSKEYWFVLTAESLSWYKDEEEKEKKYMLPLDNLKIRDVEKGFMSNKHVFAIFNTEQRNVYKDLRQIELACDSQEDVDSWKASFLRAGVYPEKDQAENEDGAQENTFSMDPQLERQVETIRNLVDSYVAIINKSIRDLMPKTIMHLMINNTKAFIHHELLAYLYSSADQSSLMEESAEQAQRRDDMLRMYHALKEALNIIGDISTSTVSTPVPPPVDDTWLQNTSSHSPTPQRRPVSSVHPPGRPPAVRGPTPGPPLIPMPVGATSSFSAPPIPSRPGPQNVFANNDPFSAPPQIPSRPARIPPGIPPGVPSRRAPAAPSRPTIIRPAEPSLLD
Test: pull-down

Tuba isoform 1 (endogenous, Caco-2 BBE1 cells) (from UniProt Q6XZF7 1-1577)
binding: binds
